# From PMC12120719, “Targeting Senescence with Apigenin Improves Chemotherapeutic Efficacy and Ameliorates Age‐Related Conditions in Mice” (Advanced Science, 2025)
# The chains behind the UniProt entries cited, without tags or fusion partners.
# UniProt Q13315: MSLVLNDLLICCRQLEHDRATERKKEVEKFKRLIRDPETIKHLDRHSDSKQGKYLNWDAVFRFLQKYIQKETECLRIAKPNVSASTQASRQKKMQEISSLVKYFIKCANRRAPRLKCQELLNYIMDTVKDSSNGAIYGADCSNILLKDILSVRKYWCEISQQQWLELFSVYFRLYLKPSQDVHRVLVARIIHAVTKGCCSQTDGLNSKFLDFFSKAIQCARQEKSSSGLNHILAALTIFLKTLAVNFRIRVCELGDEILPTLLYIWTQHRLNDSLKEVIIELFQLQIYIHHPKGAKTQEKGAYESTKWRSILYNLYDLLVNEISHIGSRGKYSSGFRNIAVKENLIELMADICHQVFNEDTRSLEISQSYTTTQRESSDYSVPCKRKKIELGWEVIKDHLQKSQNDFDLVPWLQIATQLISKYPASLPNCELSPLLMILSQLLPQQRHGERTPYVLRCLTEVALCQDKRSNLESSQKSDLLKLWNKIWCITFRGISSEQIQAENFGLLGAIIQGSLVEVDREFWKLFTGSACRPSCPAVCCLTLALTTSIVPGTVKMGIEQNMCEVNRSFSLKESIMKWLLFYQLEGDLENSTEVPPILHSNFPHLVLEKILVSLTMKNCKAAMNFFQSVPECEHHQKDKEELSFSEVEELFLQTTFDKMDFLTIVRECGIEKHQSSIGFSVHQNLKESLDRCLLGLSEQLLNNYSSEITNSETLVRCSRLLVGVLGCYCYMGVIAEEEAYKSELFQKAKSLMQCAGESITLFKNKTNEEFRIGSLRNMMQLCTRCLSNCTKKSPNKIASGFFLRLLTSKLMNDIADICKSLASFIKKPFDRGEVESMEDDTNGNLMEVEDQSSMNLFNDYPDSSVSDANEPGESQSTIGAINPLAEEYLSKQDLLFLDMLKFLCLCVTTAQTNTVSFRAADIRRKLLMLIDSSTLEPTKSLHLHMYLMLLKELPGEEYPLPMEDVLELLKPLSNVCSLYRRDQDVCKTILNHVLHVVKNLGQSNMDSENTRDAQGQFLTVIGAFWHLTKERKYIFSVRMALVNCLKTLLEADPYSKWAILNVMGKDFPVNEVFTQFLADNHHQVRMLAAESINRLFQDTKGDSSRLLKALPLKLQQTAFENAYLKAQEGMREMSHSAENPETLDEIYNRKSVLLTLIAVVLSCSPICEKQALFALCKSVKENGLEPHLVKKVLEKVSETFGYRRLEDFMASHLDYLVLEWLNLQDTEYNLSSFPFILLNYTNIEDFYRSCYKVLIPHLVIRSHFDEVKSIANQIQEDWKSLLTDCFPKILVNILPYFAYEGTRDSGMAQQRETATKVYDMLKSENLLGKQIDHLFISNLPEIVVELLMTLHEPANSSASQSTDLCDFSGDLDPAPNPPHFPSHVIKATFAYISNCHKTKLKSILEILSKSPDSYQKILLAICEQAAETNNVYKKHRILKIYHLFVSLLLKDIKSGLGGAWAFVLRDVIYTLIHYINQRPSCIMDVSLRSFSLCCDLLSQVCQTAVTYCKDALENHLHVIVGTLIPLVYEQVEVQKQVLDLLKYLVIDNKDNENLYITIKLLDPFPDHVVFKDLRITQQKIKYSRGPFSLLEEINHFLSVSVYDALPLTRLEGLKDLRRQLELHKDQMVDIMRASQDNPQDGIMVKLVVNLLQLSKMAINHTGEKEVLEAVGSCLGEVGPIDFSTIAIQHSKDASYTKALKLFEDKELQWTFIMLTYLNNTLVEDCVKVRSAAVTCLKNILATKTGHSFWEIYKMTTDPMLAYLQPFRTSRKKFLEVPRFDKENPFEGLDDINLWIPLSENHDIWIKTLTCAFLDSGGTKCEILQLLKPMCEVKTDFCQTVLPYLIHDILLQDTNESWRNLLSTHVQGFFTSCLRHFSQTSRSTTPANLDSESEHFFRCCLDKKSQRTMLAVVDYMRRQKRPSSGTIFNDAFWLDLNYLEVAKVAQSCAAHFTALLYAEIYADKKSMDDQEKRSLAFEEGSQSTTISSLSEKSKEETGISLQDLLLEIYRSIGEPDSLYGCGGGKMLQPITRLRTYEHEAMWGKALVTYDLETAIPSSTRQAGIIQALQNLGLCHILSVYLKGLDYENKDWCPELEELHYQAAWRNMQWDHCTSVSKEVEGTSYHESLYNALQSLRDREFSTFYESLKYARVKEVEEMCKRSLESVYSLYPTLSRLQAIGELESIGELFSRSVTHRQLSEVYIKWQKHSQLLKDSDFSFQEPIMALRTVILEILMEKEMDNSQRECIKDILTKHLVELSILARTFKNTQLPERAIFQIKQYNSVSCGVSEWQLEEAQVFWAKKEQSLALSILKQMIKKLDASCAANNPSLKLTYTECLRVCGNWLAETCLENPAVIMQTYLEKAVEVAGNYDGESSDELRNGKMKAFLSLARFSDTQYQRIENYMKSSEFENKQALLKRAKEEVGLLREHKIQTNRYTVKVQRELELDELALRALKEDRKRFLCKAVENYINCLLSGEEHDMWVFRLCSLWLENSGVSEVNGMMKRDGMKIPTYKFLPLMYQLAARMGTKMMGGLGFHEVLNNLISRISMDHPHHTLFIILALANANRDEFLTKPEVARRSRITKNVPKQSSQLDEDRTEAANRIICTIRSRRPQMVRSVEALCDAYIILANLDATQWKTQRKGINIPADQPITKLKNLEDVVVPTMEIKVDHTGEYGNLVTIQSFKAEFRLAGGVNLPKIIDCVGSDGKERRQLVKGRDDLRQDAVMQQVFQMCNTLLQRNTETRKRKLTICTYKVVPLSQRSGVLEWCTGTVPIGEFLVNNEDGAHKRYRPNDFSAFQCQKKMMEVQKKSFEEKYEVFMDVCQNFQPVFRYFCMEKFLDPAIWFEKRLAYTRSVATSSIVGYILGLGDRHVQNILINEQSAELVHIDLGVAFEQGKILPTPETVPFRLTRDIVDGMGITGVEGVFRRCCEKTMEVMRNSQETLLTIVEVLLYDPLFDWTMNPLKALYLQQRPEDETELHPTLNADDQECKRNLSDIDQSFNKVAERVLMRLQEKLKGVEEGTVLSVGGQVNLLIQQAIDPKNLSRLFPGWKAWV
# UniProt P06748: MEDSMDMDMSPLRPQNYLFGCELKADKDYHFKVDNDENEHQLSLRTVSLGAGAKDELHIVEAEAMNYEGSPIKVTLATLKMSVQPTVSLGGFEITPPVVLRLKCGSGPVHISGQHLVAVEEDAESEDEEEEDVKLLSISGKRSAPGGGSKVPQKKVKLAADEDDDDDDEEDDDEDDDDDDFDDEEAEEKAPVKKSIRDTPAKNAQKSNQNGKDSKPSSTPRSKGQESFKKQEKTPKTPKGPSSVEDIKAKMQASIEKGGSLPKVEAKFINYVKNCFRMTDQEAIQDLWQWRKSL
# UniProt P11142: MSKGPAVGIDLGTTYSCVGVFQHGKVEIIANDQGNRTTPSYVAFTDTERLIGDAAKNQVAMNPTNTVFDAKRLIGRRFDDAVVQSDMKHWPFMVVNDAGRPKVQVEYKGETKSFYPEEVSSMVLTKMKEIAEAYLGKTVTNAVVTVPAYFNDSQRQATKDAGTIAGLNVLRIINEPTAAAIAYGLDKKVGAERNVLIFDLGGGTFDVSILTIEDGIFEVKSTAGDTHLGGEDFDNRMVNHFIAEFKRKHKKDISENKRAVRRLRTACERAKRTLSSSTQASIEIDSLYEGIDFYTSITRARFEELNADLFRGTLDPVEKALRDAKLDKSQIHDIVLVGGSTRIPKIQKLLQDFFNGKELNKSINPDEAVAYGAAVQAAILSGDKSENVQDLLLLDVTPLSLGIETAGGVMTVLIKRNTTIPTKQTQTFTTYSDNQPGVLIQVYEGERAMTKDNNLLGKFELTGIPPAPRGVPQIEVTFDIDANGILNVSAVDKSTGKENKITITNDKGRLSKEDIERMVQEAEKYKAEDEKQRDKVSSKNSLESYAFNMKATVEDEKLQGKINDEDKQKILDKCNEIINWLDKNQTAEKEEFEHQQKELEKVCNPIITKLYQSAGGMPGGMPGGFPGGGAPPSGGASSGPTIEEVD
# These are yes or no findings as the source states them, for the method shown. Binding seen in cells or lysates may run through a third protein. Some entries that bind do so weakly or less than the wild type.
# Molecular target: phosphorylated ATM (human (endogenous in PSC27)) (UniProt Q13315)
# Assay: co-IP; IP with anti-p-ATM (IgG as control) from lysates of PSC27 cells treated with BLEO (50 µg/mL, 12 h), immunoblot; also done with cells treated with the HSPA8 inhibitor VER155008 (interaction with HSPA8 markedly reduced)
row,Substance,binding
1,NPM1 (from UniProt P06748 1-294),binds
2,HSPA8 (from UniProt P11142 1-646),binds
